PubChem BioAssay AID1259308 | NCATS, 2017

Aim: 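Knock-downs that increase output of a recombinant reporter protein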 (primary screen)
Cells: human HEK293 embryonic kidney cells stably expressing firefly luciferase (HEK-CMV-Luc2-Hygro)
Reagents: single siRNA against human genes, 0.8 pmol siRNA per well
Time to read-out: 72 h
Read-out: 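Reporter luminescence and viable-cell signal on separate replicate plates, given as percent of non-targeting control and median/MAD z-scores, plus per-cell luciferase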
Direction: total luciferase, z-score and total luciferase, % of control: higher = more reporter protein produced; luciferase per cell, z-score: higher = more reporter output per viable cell; viable cells, % of control: higher = more viable cells
Active means: 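An siRNA counts as active if its total luciferase robust z-score exceeds 3; genes with two or more such siRNAs out of three were retested with fresh siRNAs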
Calls: active = raised luciferase; inactive = no rise
This is a random part of about 59,000 deposited reagents. Over the whole deposit, about 1,510 (2.6%) were called active. 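Calls use total luciferase alone and ignore viability, so some active siRNAs may act by altering cell number.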 Unmarked entries are inactive. No sequences are given here.

| gene knocked down | PubChem SID | total luciferase, z-score | total luciferase, % of control | luciferase per cell, z-score | viable cells, % of control |
| --- | --- | --- | --- | --- | --- |
| DLX4 (GeneID 1748) | SID160730711 | -2.35 | 35.1 | -3.19 | 90.8 |
| DLX4 (GeneID 1748) | SID160754805 | -1.82 | 45.7 | -1.31 | 71.9 |
| DLX4 (GeneID 1748) | SID160754814 | -0.8 | 66 | -0.569 | 85.6 |
| DHFR (GeneID 1719) | SID160754128 | -0.766 | 66.6 | -0.785 | 91.6 |
| DHFR (GeneID 1719) | SID160754139 | 0.772 | 97.2 | 2.63 | 54.3 |
| DHFR (GeneID 1719) | SID160754150 | -0.608 | 69.8 | -0.157 | 81.3 |
| ZNF528 (GeneID 84436) | SID160752236 | 0.886 | 99.5 | 0.694 | 92.6 |
| ZNF528 (GeneID 84436) | SID160752237 | 0.196 | 85.8 | 0.552 | 82.9 |
| ZNF528 (GeneID 84436) | SID160752238 | 0.643 | 94.7 | 0.487 | 93.1 |
| LRRC75B (GeneID 388886) | SID160733220 | 1.21 | 106 | 0.478 | 104 |
| LRRC75B (GeneID 388886) | SID160766013 | 1.22 | 106 | 0.773 | 96.8 |
| LRRC75B (GeneID 388886) | SID160766015 | -0.165 | 78.6 | -0.251 | 93.8 |
| CEP131 (GeneID 22994) | SID160734673 | -0.299 | 75.9 | -0.0686 | 86.4 |
| CEP131 (GeneID 22994) | SID160734682 | -1.52 | 51.7 | -1.55 | 86.8 |
| CEP131 (GeneID 22994) | SID160734693 | 1.07 | 103 | 1.54 | 76.8 |
| ACP2 (GeneID 53) | SID160777798 | 2.07 | 123 | 1.82 | 85.1 |
| ACP2 (GeneID 53) | SID160777810 | -0.317 | 75.6 | -0.248 | 90.2 |
| ACP2 (GeneID 53) | SID160777820 | 0.979 | 101 | 0.919 | 88.9 |
| INO80C (GeneID 125476) | SID160756332 | -1.1 | 60.1 | -0.856 | 84.1 |
| INO80C (GeneID 125476) | SID160756333 | -0.338 | 75.2 | -0.599 | 98.3 |
| INO80C (GeneID 125476) | SID160756334 | -0.116 | 79.6 | -0.412 | 99.1 |
| KCNIP4 (GeneID 80333) | SID160750411 | 0.979 | 101 | 1.88 | 69 |
| KCNIP4 (GeneID 80333) | SID160750412 | -0.653 | 68.9 | -0.345 | 84.3 |
| KCNIP4 (GeneID 80333) | SID160750413 | -2.44 | 33.3 | -0.881 | 46.9 |
| DIPK1A (GeneID 388650) | SID160765949 | 2.6 | 134 | 3.11 | 65.9 |
| DIPK1A (GeneID 388650) | SID160765950 | 2.26 | 127 | 1.88 | 86.4 |
| DIPK1A (GeneID 388650) | SID160765951 | -0.106 | 79.8 | -0.172 | 93.3 |
| S1PR3 (GeneID 1903) | SID160758023 | 0.00149 | 81.9 | 0.764 | 74.9 |
| S1PR3 (GeneID 1903) | SID160758034 | -0.455 | 72.8 | -0.916 | 104 |
| S1PR3 (GeneID 1903) | SID160758045 | -0.0342 | 81.2 | 0.0373 | 89.9 |
| S1PR3 (GeneID 1903) | SID160763814 | 0.517 | 92.2 | 0.499 | 90.3 |
| S1PR3 (GeneID 1903) | SID160763815 | -0.238 | 77.2 | -0.464 | 97.4 |
| S1PR3 (GeneID 1903) | SID160763816 | 0.521 | 92.2 | 0.106 | 100 |
| CTDNEP1 (GeneID 23399) | SID160736197 | -0.737 | 67.2 | -1.23 | 104 |
| CTDNEP1 (GeneID 23399) | SID160736199 | -0.809 | 65.8 | -1.07 | 97.5 |
| CTDNEP1 (GeneID 23399) | SID160736200 | -0.777 | 66.4 | -1.52 | 111 |
| CDK18 (GeneID 5129) | SID160713958 | 0.103 | 83.9 | -0.0608 | 95.3 |
| CDK18 (GeneID 5129) | SID160713959 | 0.228 | 86.4 | -0.292 | 104 |
| CDK18 (GeneID 5129) | SID160713960 | 3.22 (active) | 146 | 1.87 | 99.8 |
| PMEPA1 (GeneID 56937) | SID160745340 | 3.89 (active) | 159 | 2.4 | 94.7 |
| PMEPA1 (GeneID 56937) | SID160745341 | -0.479 | 72.4 | -0.986 | 105 |
| PMEPA1 (GeneID 56937) | SID160745342 | 1.01 | 102 | 1.59 | 74.9 |
| ESF1 (GeneID 51575) | SID160741035 | -1.9 | 44.1 | -1.66 | 76.3 |
| ESF1 (GeneID 51575) | SID160741036 | 0.46 | 91 | 0.181 | 97 |
| ESF1 (GeneID 51575) | SID160741037 | -0.58 | 70.4 | 0.234 | 73.9 |
| LOC440742 (GeneID 440742) | SID160767861 | 1.16 | 105 | 0.666 | 98.5 |
| LOC440742 (GeneID 440742) | SID160767862 | 0.109 | 84 | 0.144 | 90.4 |
| LOC440742 (GeneID 440742) | SID160767863 | 1.72 | 116 | 1.84 | 79.9 |
| ABCG4 (GeneID 64137) | SID160747520 | 0.668 | 95.2 | 0.544 | 92.2 |
| ABCG4 (GeneID 64137) | SID160747521 | -0.3 | 75.9 | 1.17 | 62.4 |
| ABCG4 (GeneID 64137) | SID160747522 | 1.38 | 109 | 0.503 | 107 |
| GMPR2 (GeneID 51292) | SID160740516 | -0.468 | 72.6 | -0.163 | 84.7 |
| GMPR2 (GeneID 51292) | SID160740517 | 0.0168 | 82.2 | 0.377 | 83.2 |
| GMPR2 (GeneID 51292) | SID160740518 | 0.421 | 90.3 | 0.284 | 93.6 |
| RNF152 (GeneID 220441) | SID160761537 | -0.649 | 69 | 0.491 | 67.7 |
| RNF152 (GeneID 220441) | SID160761538 | -0.394 | 74 | -0.92 | 105 |
| RNF152 (GeneID 220441) | SID160761539 | -0.77 | 66.6 | 1.25 | 53.6 |

Copied from the listing (3 entries):
| gene knocked down | PubChem SID | total luciferase, z-score | total luciferase, % of control | luciferase per cell, z-score | viable cells, % of control |
| --- | --- | --- | --- | --- | --- |
| S1PR3 (GeneID 1903) | SID160758034 | -0.455 | 72.8 | -0.916 | 104 |
| S1PR3 (GeneID 1903) | SID160758045 | -0.0342 | 81.2 | 0.0373 | 89.9 |
| S1PR3 (GeneID 1903) | SID160763814 | 0.517 | 92.2 | 0.499 | 90.3 |
